Reference: PMC3556083
Results are given in words; binding and its absence hold for the method and conditions named. In cells and extracts the contact can be indirect. These calls come from enrichment with a bait or labelling near it, and not all partners need be listed.

The chains behind the UniProt entries cited, without tags or fusion partners. Residues count along the entry.
UniProt P80385: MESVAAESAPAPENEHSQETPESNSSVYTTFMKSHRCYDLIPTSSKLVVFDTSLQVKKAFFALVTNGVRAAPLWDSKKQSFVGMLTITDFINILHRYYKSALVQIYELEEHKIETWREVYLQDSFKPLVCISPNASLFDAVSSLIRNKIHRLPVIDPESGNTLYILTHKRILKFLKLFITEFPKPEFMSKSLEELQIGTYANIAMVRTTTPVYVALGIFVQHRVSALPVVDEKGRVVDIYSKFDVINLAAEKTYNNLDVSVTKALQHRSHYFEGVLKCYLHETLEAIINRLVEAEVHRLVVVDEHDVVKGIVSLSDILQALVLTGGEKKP
UniProt P84079: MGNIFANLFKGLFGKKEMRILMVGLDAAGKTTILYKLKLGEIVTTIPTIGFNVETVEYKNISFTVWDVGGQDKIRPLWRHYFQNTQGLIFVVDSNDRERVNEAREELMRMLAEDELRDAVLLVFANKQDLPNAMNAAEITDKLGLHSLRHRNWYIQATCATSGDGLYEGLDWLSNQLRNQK
UniProt P61206: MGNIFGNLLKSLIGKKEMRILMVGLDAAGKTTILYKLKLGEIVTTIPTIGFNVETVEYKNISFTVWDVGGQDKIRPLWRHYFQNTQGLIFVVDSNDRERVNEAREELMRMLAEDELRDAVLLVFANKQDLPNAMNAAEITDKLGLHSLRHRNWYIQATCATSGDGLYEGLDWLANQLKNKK
UniProt Q64578: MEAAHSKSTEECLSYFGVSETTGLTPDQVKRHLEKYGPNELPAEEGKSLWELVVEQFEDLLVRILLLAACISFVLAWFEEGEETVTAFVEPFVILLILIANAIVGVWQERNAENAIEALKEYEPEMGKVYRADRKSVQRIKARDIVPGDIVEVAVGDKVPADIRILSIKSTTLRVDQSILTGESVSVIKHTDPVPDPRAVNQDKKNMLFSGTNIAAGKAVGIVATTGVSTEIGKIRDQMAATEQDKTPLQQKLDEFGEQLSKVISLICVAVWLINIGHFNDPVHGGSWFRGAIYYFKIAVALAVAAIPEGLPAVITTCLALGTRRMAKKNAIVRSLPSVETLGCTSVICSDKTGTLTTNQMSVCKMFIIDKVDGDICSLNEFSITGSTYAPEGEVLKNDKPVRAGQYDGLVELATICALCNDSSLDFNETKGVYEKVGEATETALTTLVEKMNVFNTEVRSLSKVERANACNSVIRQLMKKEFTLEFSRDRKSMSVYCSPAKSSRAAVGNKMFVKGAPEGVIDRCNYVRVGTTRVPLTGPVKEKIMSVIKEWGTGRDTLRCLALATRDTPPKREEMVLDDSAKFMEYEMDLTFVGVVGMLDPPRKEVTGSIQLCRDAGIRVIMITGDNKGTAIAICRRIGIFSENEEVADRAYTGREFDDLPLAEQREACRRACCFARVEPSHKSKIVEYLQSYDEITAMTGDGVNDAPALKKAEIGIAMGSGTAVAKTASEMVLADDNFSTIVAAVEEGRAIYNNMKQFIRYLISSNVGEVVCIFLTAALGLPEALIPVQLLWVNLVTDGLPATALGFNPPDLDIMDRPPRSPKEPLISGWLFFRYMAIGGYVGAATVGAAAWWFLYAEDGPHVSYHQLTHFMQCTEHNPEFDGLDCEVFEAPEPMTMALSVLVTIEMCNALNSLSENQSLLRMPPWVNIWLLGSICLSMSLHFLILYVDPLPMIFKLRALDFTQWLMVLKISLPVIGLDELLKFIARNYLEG
UniProt Q9Z0W7: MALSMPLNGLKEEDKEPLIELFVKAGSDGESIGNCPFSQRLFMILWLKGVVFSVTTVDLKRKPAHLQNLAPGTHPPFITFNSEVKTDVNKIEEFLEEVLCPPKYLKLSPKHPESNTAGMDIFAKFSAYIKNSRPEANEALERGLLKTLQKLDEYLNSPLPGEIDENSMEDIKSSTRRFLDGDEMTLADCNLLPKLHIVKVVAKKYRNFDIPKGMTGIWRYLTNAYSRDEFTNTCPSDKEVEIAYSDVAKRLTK
UniProt P10888, residues 23-169: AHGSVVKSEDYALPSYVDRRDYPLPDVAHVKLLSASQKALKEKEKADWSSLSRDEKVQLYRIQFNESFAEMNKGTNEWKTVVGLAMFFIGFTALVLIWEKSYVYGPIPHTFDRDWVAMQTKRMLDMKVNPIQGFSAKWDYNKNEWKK
UniProt Q9JJ31: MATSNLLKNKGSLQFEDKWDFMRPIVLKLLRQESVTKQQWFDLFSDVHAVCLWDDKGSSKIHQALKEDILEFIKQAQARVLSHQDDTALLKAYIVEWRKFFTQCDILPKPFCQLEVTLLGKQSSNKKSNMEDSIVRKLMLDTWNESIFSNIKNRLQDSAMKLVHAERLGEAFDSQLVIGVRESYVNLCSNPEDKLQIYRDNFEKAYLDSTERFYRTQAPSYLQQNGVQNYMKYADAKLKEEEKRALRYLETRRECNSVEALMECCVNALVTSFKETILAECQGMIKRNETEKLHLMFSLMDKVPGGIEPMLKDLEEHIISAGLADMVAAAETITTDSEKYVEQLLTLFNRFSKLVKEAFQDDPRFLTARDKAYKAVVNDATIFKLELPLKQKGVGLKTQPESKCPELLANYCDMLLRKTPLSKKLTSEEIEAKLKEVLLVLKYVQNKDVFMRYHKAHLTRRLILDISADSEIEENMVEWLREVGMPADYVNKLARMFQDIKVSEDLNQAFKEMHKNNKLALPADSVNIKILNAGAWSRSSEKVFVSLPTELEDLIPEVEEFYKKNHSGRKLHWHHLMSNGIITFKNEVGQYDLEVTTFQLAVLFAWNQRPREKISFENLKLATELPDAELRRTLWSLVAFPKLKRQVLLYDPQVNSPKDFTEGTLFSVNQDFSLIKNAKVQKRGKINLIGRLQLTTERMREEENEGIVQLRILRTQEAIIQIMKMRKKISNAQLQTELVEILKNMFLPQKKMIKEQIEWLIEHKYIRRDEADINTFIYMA
UniProt Q9ESW0: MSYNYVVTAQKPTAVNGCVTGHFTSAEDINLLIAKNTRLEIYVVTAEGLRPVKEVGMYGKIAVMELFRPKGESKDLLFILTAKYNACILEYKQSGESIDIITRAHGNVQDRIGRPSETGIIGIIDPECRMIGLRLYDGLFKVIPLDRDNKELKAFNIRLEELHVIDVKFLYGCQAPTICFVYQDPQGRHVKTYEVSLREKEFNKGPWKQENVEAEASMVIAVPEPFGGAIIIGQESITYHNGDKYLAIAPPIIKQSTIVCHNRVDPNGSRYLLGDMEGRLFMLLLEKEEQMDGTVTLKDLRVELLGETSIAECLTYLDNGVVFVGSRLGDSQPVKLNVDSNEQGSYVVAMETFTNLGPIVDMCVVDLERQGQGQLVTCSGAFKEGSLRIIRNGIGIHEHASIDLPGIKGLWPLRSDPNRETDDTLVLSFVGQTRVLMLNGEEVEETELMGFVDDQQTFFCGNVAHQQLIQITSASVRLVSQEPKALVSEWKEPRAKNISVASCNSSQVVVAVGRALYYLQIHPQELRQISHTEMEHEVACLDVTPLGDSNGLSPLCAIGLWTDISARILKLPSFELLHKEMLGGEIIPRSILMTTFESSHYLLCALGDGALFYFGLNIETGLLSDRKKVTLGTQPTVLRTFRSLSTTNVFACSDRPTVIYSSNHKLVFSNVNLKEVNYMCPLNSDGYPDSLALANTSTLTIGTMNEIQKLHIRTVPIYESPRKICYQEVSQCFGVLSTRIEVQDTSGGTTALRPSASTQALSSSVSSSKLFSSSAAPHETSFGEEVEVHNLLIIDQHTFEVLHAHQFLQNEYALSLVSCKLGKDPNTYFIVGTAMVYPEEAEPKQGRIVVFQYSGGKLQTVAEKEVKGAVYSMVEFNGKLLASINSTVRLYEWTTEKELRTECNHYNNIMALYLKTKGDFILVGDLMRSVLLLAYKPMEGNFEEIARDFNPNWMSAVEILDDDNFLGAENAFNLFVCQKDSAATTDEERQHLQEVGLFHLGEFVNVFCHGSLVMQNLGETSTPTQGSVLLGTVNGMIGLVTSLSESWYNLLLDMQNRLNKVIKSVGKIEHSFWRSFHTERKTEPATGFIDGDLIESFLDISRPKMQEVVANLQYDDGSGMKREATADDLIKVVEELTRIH
UniProt P63170: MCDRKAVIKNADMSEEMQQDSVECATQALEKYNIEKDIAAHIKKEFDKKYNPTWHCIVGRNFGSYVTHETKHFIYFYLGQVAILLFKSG
UniProt Q5M7W5: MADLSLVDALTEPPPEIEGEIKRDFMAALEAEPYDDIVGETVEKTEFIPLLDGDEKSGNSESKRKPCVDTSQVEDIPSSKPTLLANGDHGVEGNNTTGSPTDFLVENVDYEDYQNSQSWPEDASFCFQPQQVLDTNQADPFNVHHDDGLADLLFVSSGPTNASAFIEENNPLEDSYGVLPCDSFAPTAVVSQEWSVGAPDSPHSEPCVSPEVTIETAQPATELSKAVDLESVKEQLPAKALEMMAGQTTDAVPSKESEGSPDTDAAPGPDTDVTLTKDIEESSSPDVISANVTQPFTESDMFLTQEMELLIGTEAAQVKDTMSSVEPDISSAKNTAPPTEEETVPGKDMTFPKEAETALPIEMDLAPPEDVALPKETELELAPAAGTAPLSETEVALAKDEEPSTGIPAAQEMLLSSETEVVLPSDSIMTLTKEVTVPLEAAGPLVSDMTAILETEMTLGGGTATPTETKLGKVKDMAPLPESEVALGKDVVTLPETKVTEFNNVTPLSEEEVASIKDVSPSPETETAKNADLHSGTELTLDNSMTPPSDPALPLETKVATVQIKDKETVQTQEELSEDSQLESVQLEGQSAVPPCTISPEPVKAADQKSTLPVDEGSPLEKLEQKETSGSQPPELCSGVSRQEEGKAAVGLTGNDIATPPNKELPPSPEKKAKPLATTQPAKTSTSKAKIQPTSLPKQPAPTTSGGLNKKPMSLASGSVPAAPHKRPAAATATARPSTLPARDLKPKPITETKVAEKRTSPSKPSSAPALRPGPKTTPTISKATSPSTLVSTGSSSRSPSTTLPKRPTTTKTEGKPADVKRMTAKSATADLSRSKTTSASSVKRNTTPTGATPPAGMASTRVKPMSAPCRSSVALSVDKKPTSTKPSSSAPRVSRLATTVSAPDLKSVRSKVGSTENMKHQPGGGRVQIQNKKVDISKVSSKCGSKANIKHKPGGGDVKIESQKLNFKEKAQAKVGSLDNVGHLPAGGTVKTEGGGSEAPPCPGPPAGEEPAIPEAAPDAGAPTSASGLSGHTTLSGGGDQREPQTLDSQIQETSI
UniProt Q8R431: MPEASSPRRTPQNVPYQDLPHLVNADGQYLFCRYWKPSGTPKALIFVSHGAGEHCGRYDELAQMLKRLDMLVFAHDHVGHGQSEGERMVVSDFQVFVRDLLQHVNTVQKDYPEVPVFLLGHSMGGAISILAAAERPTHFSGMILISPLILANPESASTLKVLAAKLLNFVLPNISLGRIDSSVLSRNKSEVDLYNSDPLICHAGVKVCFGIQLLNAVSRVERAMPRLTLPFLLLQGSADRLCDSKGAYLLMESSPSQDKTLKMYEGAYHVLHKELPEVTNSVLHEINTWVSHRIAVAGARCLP
UniProt Q920G2: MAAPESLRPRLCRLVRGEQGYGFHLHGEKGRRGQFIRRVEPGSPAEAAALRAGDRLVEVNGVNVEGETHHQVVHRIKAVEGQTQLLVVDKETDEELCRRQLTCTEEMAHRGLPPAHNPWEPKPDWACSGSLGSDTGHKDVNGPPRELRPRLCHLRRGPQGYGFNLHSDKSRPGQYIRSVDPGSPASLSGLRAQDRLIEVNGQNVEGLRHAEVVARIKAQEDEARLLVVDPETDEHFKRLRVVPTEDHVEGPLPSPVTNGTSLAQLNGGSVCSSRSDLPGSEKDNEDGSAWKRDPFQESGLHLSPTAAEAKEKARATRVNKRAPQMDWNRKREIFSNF
UniProt P19804: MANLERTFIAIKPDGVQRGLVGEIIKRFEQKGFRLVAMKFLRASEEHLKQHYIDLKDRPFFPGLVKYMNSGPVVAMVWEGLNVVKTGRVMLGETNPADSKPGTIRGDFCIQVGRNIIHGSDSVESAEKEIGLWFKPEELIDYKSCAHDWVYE
UniProt Q63798: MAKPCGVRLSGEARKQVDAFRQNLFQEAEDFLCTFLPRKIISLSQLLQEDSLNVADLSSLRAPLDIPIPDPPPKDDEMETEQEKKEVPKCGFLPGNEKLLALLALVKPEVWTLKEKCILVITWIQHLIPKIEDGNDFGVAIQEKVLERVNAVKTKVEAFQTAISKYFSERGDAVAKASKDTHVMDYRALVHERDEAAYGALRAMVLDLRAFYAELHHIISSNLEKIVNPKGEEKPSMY
UniProt P13086, residues 35-346: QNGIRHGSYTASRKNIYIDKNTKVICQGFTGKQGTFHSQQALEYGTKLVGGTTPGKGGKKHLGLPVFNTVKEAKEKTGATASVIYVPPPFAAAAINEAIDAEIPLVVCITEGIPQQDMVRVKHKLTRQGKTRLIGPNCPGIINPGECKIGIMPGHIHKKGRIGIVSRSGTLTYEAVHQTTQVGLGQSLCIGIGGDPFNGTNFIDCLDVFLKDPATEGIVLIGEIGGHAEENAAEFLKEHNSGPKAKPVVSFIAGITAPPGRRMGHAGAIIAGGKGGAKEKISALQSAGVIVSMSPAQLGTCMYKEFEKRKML

Biological target: β2-adrenergic receptor (UniProt P07550)
Assay: affinity purification with mass spectrometry; purified Flag-β2AR in rHDL immobilised on M1 anti-Flag resin, occupied by 50 µM BI-167107 (full agonist) or 50 µM carazolol (inverse agonist); adult rat heart cytosol (10 mg/ml, 4 mM CaCl2) overnight at 4°C; eluted with FLAG peptide and EDTA; gel slices, LC-MS; proteins of the M1 resin, empty rHDL and Ni-NTA controls subtracted; hits of either or both samples; only the target purified

Substance	binding
AKR1B1 (from UniProt P07943 1-316)	binds
ALDH6A1 (from UniProt Q02253 33-535)	binds
AMPKα2 (from UniProt Q09137 1-552)	binds
AMPKγ1 (from UniProt P80385 1-330)	binds
ARF1 (from UniProt P84079 1-181)	binds
ARF3 (from UniProt P61206 1-181)	binds
ATP2A1 (from UniProt Q64578 1-994)	binds
ATP2A3 (from UniProt P18596 1-999)	binds
BAT3 (from UniProt Q6MG49 1-1146)	binds
C3 (from UniProt P01026 25-1663)	binds
CADPS (from UniProt Q62717 1-1289)	binds
CAPN1 (from UniProt P97571 1-713)	binds
CAPN2 (from UniProt Q07009 20-700)	binds
CD36 (from UniProt Q07969 1-472)	binds
CFL1 (from UniProt P45592 1-166)	binds
CIAPIN1 (from UniProt Q5XID1 1-309)	binds
CLIC4 (from UniProt Q9Z0W7 1-253)	binds
COX4I1 (from UniProt P10888 23-169)	binds
CUL5 (from UniProt Q9JJ31 1-780)	binds
DDB1 (from UniProt Q9ESW0 1-1140)	binds
DNM1L (from UniProt O35303 1-755)	binds
DYNC1H1 (from UniProt P38650 1-4644)	binds
DYNLL1 (from UniProt P63170 1-89)	binds
EEF1A1 (from UniProt P62630 1-462)	binds
ELAVL1 (from UniProt B5DF91 1-326)	binds

Substance	binding
FIS1 (from UniProt P84817 1-152)	binds
GNAI2 (from UniProt P04897 1-355)	binds
GNB3 (from UniProt P52287 1-340)	binds
Grb2 (from UniProt P62994 1-217)	binds
HBB (includes EG:3043) (from UniProt P02091 1-147)	binds
HNRNPK (from UniProt P61980 1-463)	binds
HSPB1 (from UniProt P42930 1-206)	binds
IQGAP1 (from UniProt A0A8I6AJK7 1-1776)	binds
KPNB1 (from UniProt P52296 1-875)	binds
LIPE (from UniProt P15304-2)	binds
MAP4 (from UniProt Q5M7W5 1-1057)	binds
MGLL (from UniProt Q8R431 1-303)	binds
MPST (from UniProt P97532 1-297)	binds
MTHFD1 (from UniProt P27653 1-935)	binds
NHERF-2 (from UniProt Q920G2 1-337)	binds
NME2 (from UniProt P19804 1-152)	binds
NOL3 (from UniProt Q62881 1-221)	binds
NRAS (from UniProt Q04970 1-189)	binds
OPA1 (from UniProt Q2TA68 88-960)	binds
PCYT1A (from UniProt P19836 1-367)	binds
PPP1CB (from UniProt P62142 1-327)	binds
PPP2CA (from UniProt P63331 1-309)	binds
PPP2CB (from UniProt P62716 1-309)	binds
PRKAA1 (from UniProt P54645 1-559)	binds
PRKAB1 (from UniProt P80386 1-270)	binds

Substance	binding
PSMC1 (from UniProt P62193 1-440)	binds
PSMC3 (from UniProt Q63569 1-439)	binds
PSMC4 (from UniProt Q63570 1-418)	binds
PSMD2 (from UniProt Q4FZT9 1-908)	binds
PSME1 (from UniProt Q63797 1-249)	binds
PSME2 (from UniProt Q63798 1-238)	binds
RAB1A (from UniProt Q6NYB7 1-205)	binds
RAB6A (from UniProt Q9WVB1 1-208)	binds
RAP1A (from UniProt P62836 1-184)	binds
RHEB (from UniProt Q62639 1-184)	binds
RHOG (from UniProt Q32PX6)	binds
ROCK2 (from UniProt Q62868 1-1388)	binds
SDHA (from UniProt Q920L2 35-656)	binds
SLK (from UniProt O08815 1-1206)	binds
SOD1 (from UniProt P07632 1-154)	binds
STAT3 (from UniProt P52631 1-770)	binds
SUCLG1 (from UniProt P13086 35-346)	binds
Serine/threonine-protein phosphatase 2B, catalytic subunit alpha (from UniProt P63329 1-521)	binds
TPP1 (from UniProt Q9EQV6)	binds
UBA1 (from UniProt Q5U300 1-1058)	binds
UGGT1 (from UniProt Q9JLA3 43-1551)	binds
YWHAE (from UniProt P62260 1-255)	binds
YWHAH (from UniProt P68511 1-246)	binds
YWHAZ (from UniProt P63102 1-245)	binds
